# Measured values: article PMC12040169 (PLOS Biology, 2025)
# Some of the results follow.
# Test system: T1, CTL2-GFP (C. trachomatis L2/434/Bu, GFP-expressing)
# T1 construct: L2/434/Bu, GFP-expressing
# Parameters: species or system HeLa; Intracellular C. trachomatis growth in HeLa cells, bulk GFP fluorescence relative to DMSO
# Conditions: bulk GFP, single well; 28.5 h, 10 µM; inhibitor
row,SMILES,% of control remaining
1,CCOC(=O)CS(=O)(=O)Cc1cc(Cl)nc(Cl)c1 [CBK005544],103.78%
2,COc1ccc(CNC(=O)C2CCCN(c3cnc4ccccc4n3)C2)cc1 (stereo not drawn) [CBK287772],119.929%
3,O=C(O)c1ccccc1C(=O)N1CCN(c2ccc([N+](=O)[O-])cc2)CC1 [CBK287181],111.61%
4,COc1cc(-c2ccc3c(c2)COC2(CCCNC2)O3)cc(OC)c1OC (stereo not drawn) [CBK092299],120.239%
5,CCc1cc(Br)ccc1S(=O)(=O)NCc1cccc(F)c1 [CBK045114],112.647%
6,c1ccc2c(CNCCN3CCOCC3)cccc2c1 [CBK278156C],145.077%
7,O=C(Cc1ccccn1)N1CCCc2ccccc21 [CBK200343],103.573%
8,O=C(CCc1ccccc1F)NC1CCc2nccn2C1 (stereo not drawn) [CBK306124],116.337%
9,Brc1ccc(-n2cc(-c3ccccc3)c3c(NCc4ccccn4)ncnc32)cc1 [CBK266427],169.532%
10,COc1cnc(/C=C\c2ccccc2)c(NC(=O)c2cc(C)oc2C)n1 [CBK145222],87.0284%
11,CCOc1ccc(CNc2sc3c(c2C(=O)Nc2ccc(OC)cc2)CCC3)cc1 [CBK294473],157.097%
12,COc1cccc(-c2coc3cc4oc(=O)c(CC(=O)O)c(C)c4cc23)c1 [CBK269520],162.044%
13,Cc1ccc(C(=O)NCC(=O)O)cc1S(=O)(=O)N1CCOCC1 [CBK264534],120.673%
14,O=C(O)CCN1CCCC2(CCN(C(=O)c3ccoc3)C2)C1 (stereo not drawn) [CBK137139],106.66%
15,Cc1cc2cc(CNCCCN3CCCC3=O)c(=O)[nH]c2cc1C [CBK282296],126.073%
16,Cc1ccc(S(=O)(=O)N(CC(=O)O)c2ccc(Cl)cc2)cc1 [CBK263767],96.6662%
17,CCN(CC)C(=O)c1ccccc1NS(=O)(=O)c1cc(Br)ccc1OC [CBK045422],124.078%
18,Cc1ccc(S(=O)(=O)Nc2cc(Sc3nc(C)cc(C)n3)c(O)c3ccccc23)cc1 [CBK263313],102.925%
19,O=C(O)CNCc1ccc(-c2ccc(Cl)cc2)o1 [CBK287258],104.447%
20,CCOCCNC(=O)c1coc(COc2ccc3sc(C)nc3c2)n1 [CBK306805],123.579%
21,O=C(O)COc1cccc(NC(=O)c2cc3ccccc3o2)c1 [CBK270071],123.029%
22,O=C(CN1CCCCC1)Nc1ccc(S(=O)(=O)N2CCOCC2)cc1 [CBK265577],119.33%
23,COc1cc(OC)cc(C(=O)OCc2ccc(F)cc2)c1 [CBK267996],130.013%
24,O=C(OCc1ccc(S(=O)(=O)N2CCOCC2)cc1)c1cc(-c2ccccc2)nc2ccccc12 [CBK267411],118.624%
25,CCc1nc2ccccc2n1CC(=O)N(CCC#N)Cc1cccnc1 [CBK304892],144.171%
26,COc1ccc2[nH]c(-c3cncn3CCCC(C)(C)CO)cc2c1 [CBK281778],93.8146%

# 18 entries already listed, arranged by SMILES length, high to low:
row,SMILES,% of control remaining
24,O=C(OCc1ccc(S(=O)(=O)N2CCOCC2)cc1)c1cc(-c2ccccc2)nc2ccccc12 [CBK267411],118.624%
18,Cc1ccc(S(=O)(=O)Nc2cc(Sc3nc(C)cc(C)n3)c(O)c3ccccc23)cc1 [CBK263313],102.925%
3,O=C(O)c1ccccc1C(=O)N1CCN(c2ccc([N+](=O)[O-])cc2)CC1 [CBK287181],111.61%
9,Brc1ccc(-n2cc(-c3ccccc3)c3c(NCc4ccccn4)ncnc32)cc1 [CBK266427],169.532%
11,CCOc1ccc(CNc2sc3c(c2C(=O)Nc2ccc(OC)cc2)CCC3)cc1 [CBK294473],157.097%
17,CCN(CC)C(=O)c1ccccc1NS(=O)(=O)c1cc(Br)ccc1OC [CBK045422],124.078%
2,COc1ccc(CNC(=O)C2CCCN(c3cnc4ccccc4n3)C2)cc1 (stereo not drawn) [CBK287772],119.929%
16,Cc1ccc(S(=O)(=O)N(CC(=O)O)c2ccc(Cl)cc2)cc1 [CBK263767],96.6662%
13,Cc1ccc(C(=O)NCC(=O)O)cc1S(=O)(=O)N1CCOCC1 [CBK264534],120.673%
26,COc1ccc2[nH]c(-c3cncn3CCCC(C)(C)CO)cc2c1 [CBK281778],93.8146%
15,Cc1cc2cc(CNCCCN3CCCC3=O)c(=O)[nH]c2cc1C [CBK282296],126.073%
14,O=C(O)CCN1CCCC2(CCN(C(=O)c3ccoc3)C2)C1 (stereo not drawn) [CBK137139],106.66%
21,O=C(O)COc1cccc(NC(=O)c2cc3ccccc3o2)c1 [CBK270071],123.029%
5,CCc1cc(Br)ccc1S(=O)(=O)NCc1cccc(F)c1 [CBK045114],112.647%
1,CCOC(=O)CS(=O)(=O)Cc1cc(Cl)nc(Cl)c1 [CBK005544],103.78%
19,O=C(O)CNCc1ccc(-c2ccc(Cl)cc2)o1 [CBK287258],104.447%
8,O=C(CCc1ccccc1F)NC1CCc2nccn2C1 (stereo not drawn) [CBK306124],116.337%
6,c1ccc2c(CNCCN3CCOCC3)cccc2c1 [CBK278156C],145.077%

# The results go on:

row,SMILES,% of control remaining
1,CCc1nccn1CCC(=O)NC1CCN(Cc2ccncc2)CC1 [CBK306813],106.588%
2,CC(=O)N1CCc2c([nH]c3c(C)cccc23)C12CCN(C/C=C\c1ccccc1)C2 (stereo not drawn) [CBK040414],98.5855%
3,O=C(CN1CCN(c2ccccn2)CC1)N1c2ccccc2Sc2ccc(C(F)(F)F)cc21 [CBK268835G],94.2405%
4,c1ccc(COC(c2ccccc2)c2nc3ccccc3n2Cc2ccccc2)cc1 (stereo not drawn) [CBK267311],84.6281%
5,COc1ccc2c(c1)C1(CC(=O)N(C)C1=O)C(=O)N2C (stereo not drawn) [CBK075146],95.1211%
6,COc1ccc(-c2noc([C@@H]3Cc4[nH]cnc4CN3C(=O)CCC(=O)O)n2)cc1 [CBK288967],104.691%
7,COCCNc1nc(-c2ccccc2OC)ccc1C(=O)N1CCN(C)CC1 [CBK105950],125.22%
8,Cc1csc(-c2cn3ccnc3c(N3CCN(c4ccccn4)CC3)n2)c1 [CBK066530],124.995%
9,O=S(=O)(Nc1cc(O[C@@H]2CCNC2)c2occc2c1)c1cc(F)c(Br)cc1F [CBK073943C],97.3065%
10,Nc1nc(SCc2cccc([N+](=O)[O-])c2)n[nH]1 [CBK268688],97.1193%
11,CC(NC(=O)C1CCN(CCOc2ccccc2)CC1)c1ccccc1 (stereo not drawn) [CBK148610],106.588%
12,CN(CC1CCCN(C(=O)Nc2cccc(Cl)c2)C1)C(=O)OC(C)(C)C (stereo not drawn) [CBK305597],117.853%
13,CCn1c(CN2CCOCC2)nnc1SCC(=O)Nc1cc(C)cc(C)c1 [CBK270258],105.413%
14,O=C(NC1CC1)[C@H]1C=CCN1C(=O)c1cccs1 [CBK284324],117.007%
15,Cc1ccc(-c2ncc3c(=O)[nH]c(=O)n(C)c3n2)cc1 [CBK288553],115.624%
16,O=C1CCCN1CC(=O)N1CCCC(c2cc3ccccc3cn2)C1 (stereo not drawn) [CBK285091],79.4091%
17,CCc1cc(CNC(=O)c2cc(C)nc3c(C)cccc23)on1 [CBK281554],80.0756%
18,O=C(CSc1nc(-c2ccco2)cc(C(F)(F)F)n1)NCc1ccco1 [CBK266091],96.9958%
19,CSCc1nnc(SCCC(=O)N2CCN(c3ccc(F)cc3)CC2)o1 [CBK240463],130.831%
20,NS(=O)(=O)c1cnccc1NCCc1ccccc1 [CBK058003],91.1573%
21,CC(C)Cn1c(SCC(=O)Nc2ccc(OC(F)F)cc2)nc(O)cc1=O [CBK296679],135.411%
22,CCN(CCC(C)Sc1ccccc1)c1cncc(Oc2ccc(S(C)(=O)=O)cc2)n1 (stereo not drawn) [CBK137186T],88.5813%
23,O=C(CC1S/C(=N/N=C/c2cn(Cc3ccccc3)c3ccccc23)NC1=O)Nc1ccccc1 (stereo not drawn) [CBK264529],100%
24,CCOC(=O)CN1C(c2ccccc2O)Nc2ccc(Br)cc2C1c1ccccc1 (stereo not drawn) [CBK263130],88.6186%
25,O=C(O)COc1ccc(NC(=O)Cc2ccc([N+](=O)[O-])cc2)cc1 [CBK268573],166.492%
26,O=C(c1cccnc1)N1CCCC(c2cc3ccccc3cn2)C1 (stereo not drawn) [CBK285154],138.499%

row,SMILES,% of control remaining
1,CCNc1cc(-c2ccco2)ncn1 [CBK090879],155.214%
2,Cc1cc(C)nc(SCCCn2c(=O)[nH]c3ccccc32)n1 [CBK264485],97.5391%
3,O=C(Cc1cn2ccsc2n1)Nc1ccc(N2CCCCC2)cc1 [CBK306185],172.542%
4,Cc1cc(=O)c(O)c(CN2CCC(C(=O)O)CC2)o1 [CBK286843],125.223%
5,O=S(=O)(NCC(O)Cn1c2ccc(Cl)cc2c2cc(Cl)ccc21)c1ccccc1 (stereo not drawn) [CBK262542],108.382%
6,Cc1c(C(=O)NCCOc2ccc(-c3ccccc3)cc2)sc2nc[nH]c(=O)c12 [CBK285805],132.627%
7,Cc1ccc(C(=O)Nc2c(C(=O)Nc3cccnc3)cnn2-c2ccccc2)cc1 [CBK263056],89.3123%
8,COc1cccc(CNc2nccnc2-c2ccccc2F)c1OC [CBK037993],98.0934%
9,O=C(Nc1ccc(O)cc1)c1ccc2c(c1)C(=O)N(c1cccc(N3C(=O)c4ccc(C(=O)Nc5ccc(O)cc5)cc4C3=O)n1)C2=O [CBK261334],113.527%
10,C[C@@H](c1ccccc1)n1c(=O)[nH]c2ncc(-c3cccc4ccccc34)nc21 [CBK064710],144.521%
11,CC(=O)NCCc1nc2cc(NC(=O)c3cccc([N+](=O)[O-])c3)ccc2n1C [CBK268478],115.264%
12,COC(=O)c1ccccc1NC(=O)CNC(=O)c1ccc(Cl)cc1Cl [CBK267860],79.3786%
13,Cc1c(Cl)ccc2c(C(=O)NCCCn3cc(Br)cn3)cc(-c3ccncc3)nc12 [CBK267731],110.553%
14,N#C/C(=C\c1ccc(-c2ccc(C(=O)O)c(O)c2)o1)c1nc2ccccc2[nH]1 [CBK262121],100%
15,COC(=O)c1sc(N2CCCC2)c(S(=O)(=O)C(C)C)c1N [CBK009463],100%
16,CNc1nc(C(C)(C)C)cs1 [CBK025373],118.365%
17,CC(Sc1nc2ccccc2[nH]1)c1nc2ccccc2[nH]1 (stereo not drawn) [CBK266502],112.531%
18,O=C(COC(=O)c1ccc2c(c1)C(=O)N(c1ccc(Oc3ccccc3)cc1)C2=O)c1ccc(Br)cc1 [CBK261607],97.1741%
19,Cc1ccc(C2=CCN(CC(=O)N3CCc4ccccc43)CC2)o1 [CBK283918],136.903%
20,C=CCn1c(Cc2csc(NC(=O)c3cc(S(=O)(=O)NC)ccc3C)n2)n[nH]c1=S [CBK297903],127.534%
21,CN(C(=O)c1ccccc1N)c1ccccc1 [CBK086716],118.896%
22,Cc1c(S(=O)(=O)Nc2ccc(-c3ccc(F)cc3)cc2)cnn1C [CBK281418],72.7118%
23,CC(=O)N1CCc2sccc2C1c1ccc(NC(=O)c2cccc(F)c2)cc1 (stereo not drawn) [CBK286466],104.538%
24,CCN(Cc1ccc(C#N)cc1F)C(=O)NC(C)c1nncn1C (stereo not drawn) [CBK305888],108.406%
25,O=S(=O)(N1CCCCCC1)N1CCN(S(=O)(=O)N2CCCCCC2)CC1 [CBK269210],164.642%
26,Cc1ccc(C(=O)NCC2COc3ccccc3O2)c(N2CCN(C(=O)c3ccco3)CC2)n1 (stereo not drawn) [CBK076356],96.5554%
